# No constants are given. Whether binding was seen depends on the method and setting. Some binding calls cover weakened binding; strength is not graded here.
# Amino acid sequences for entries named in this document (tags omitted). Residues count along the entry.
# UniProt Q15389, residues 20-498: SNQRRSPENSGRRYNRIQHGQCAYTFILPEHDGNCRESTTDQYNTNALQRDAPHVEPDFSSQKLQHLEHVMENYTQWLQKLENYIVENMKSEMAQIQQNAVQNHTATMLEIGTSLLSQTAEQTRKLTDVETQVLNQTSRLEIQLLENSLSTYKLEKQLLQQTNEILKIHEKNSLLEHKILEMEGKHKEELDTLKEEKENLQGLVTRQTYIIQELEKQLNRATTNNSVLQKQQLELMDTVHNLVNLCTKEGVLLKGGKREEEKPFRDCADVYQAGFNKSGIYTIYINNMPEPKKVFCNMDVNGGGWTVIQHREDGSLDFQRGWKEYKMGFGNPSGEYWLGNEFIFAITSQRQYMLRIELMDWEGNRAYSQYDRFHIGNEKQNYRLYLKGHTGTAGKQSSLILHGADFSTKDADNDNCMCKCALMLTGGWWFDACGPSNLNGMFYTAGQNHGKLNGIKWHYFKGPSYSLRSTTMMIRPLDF
# Target: hTie2-mFc (human)
# Assay: Octet Red biosensor, hTie2.mFc captured on anti-mFc tips, 100 nM angiopoietin for 5 min; some tips first saturated with 300 nM H4H2055N or Control I
substance,measurement,value
hAng1 (from UniProt Q15389 20-498) (ligand),binding,binds
